# Test results: PubChem BioAssay AID2685 (National Center for Advancing Translational Sciences (NCATS), 2010)
# This is one part of the list. These are further read-outs of the screen, such as a control signal, another cell line or another target. No call is given for them. Most of these compounds were active or inconclusive in the main read-out, so they are no random draw. Potencies come from curve fits of mixed quality, noted in brackets.
# Assay: qHTS Assay for Lipid Storage Modulators in Drosophila S3 Cells;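 on cell number change: cells counted by Cell Tracker Red CMTPX staining in the red channel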
# Conditions: BODIPY lipid droplet fluorescence, 18-24 h; for cell number change: measured here: cell count max response, cells fed with added oleic acid
# Procedure, shortened: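 Laser-scanning cytometry quantifies lipid droplet accumulation (500–530 nm total intensity; droplet/cell object ratio) in oleic acid-fed (400 uM added) Drosophila S3 cells treated with a concentration series. 20 uM Triacsin C defined 100% inhibition.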
# [1] = measured here: cell number channel AC50, cells fed with added oleic acid
# [2] = measured here: lipid fluorescence (Fed channel) AC50, cells fed with added oleic acid
Compound,cell number change,AC50 [1],AC50 [2]
FC(F)(F)c1ccc(/C=N/NC(=S)NC2CCCCC2)cc1,-15.9%,,
Cc1ccc(S(=O)(=O)Cc2ccc(C(=O)NCc3ccc4c(c3)OCO4)o2)cc1,,"0.164 µM [rising, full curve, poor fit]","0.13 µM [rising, full curve, poor fit]"
COc1ccc2c(c1)[nH]c1c(=O)n(Cc3ccco3)cnc12,107%,,
Cn1ncc2c(Nc3ccc(-c4ccccc4)cc3)ncnc21,22.8%,"0.461 µM [rising, full curve, poor fit]","0.58 µM [rising, partial curve]"
Nc1[nH]c(=S)[nH]c(=O)c1-c1ccccc1,40.4%,"29.1 µM [rising, single point]",
COc1ccc(OC)c(NC2c3ccccc3C(=O)N2Cc2ccc3c(c2)OCO3)c1 (configuration not stated),,"1.46 µM [rising, partial curve]",
CCN1CCN(c2cc(-c3ccccc3)nc3cc(-c4cccc(F)c4)nn23)CC1,-75.3%,"29.1 µM [falling, single point]","29.1 µM [falling, single point]"
Cc1cc(-c2ccccc2)nc(N/N=C/c2ccc(O)cc2)n1,-16.4%,,"29.1 µM [falling, single point]"
CC(C)OC(=O)CSc1nnc2n1C(C)(C)Cc1ccccc1-2,68.2%,"29.1 µM [rising, single point]","23.1 µM [rising, single point]"
N#Cc1ccccc1NC(=O)c1ccc(-c2ccccc2Cl)o1,-46.1%,"25.9 µM [falling, single point]",
COc1ccc(CCC(C)NCc2ccc(Cl)c(Cl)c2)cc1 (configuration not stated),-18.5%,,"0.58 µM [rising, single point]"
COc1cccc(NC(=O)Cc2nnc(SCC(=O)NC3CCCC3)n2C)c1,22.5%,,
COc1ccc(CNC(=S)NCc2ccc(F)cc2)cc1,22%,"0.92 µM [rising, full curve, poor fit]",
CCOc1ccccc1NC(=S)N1CCN(c2ccc(O)cc2)CC1,7.09%,,
CCN(CC)c1ccc(/C=C2/SC(=O)N(C(C)C)C2=O)o1,-77.2%,"29.1 µM [falling, single point]","29.1 µM [falling, single point]"
Cc1nn(C(C)C(=O)Nc2ccccc2Cl)c(=O)c2nn(-c3ccccc3)c(C)c12 (configuration not stated),32.7%,"0.411 µM [rising, partial curve]",
COc1cccc2sc(=NC(=O)CS(=O)(=O)c3ccc(F)cc3)n(C)c12,,,"0.0731 µM [rising, full curve, poor fit]"
Cn1c(=O)n(CCc2ccccc2)c(=O)c2c1nc1n2CCCN1Cc1ccccc1,11.6%,,
N#CC1(NC(=O)CN2CCc3ccccc3C2)CCCC1,-64%,"23.1 µM [falling, single point]",
CC1CC(C)CN(S(=O)(=O)c2ccc(NC(=O)CCN3C(=O)C4CC=CCC4C3=O)cc2)C1 (configuration not stated),15.8%,,

Compound,cell number change,AC50 [1],AC50 [2]
Cc1ccccc1-c1cc(C(=O)NCc2ccc3c(c2)OCO3)n(CC2CC(c3cccnc3)=NO2)n1 (configuration not stated),-8.15%,,"1.16 µM [rising, single point]"
COc1ccc2oc(C(=O)NCc3ccccc3CN3CCCC3)c(C)c2c1,-18.3%,,"5.17 µM [falling, partial curve, poor fit]"
Cc1cccc(Nc2nnc(SC(C)C(=O)NC3CC3)s2)c1 (configuration not stated),-13.8%,,
O=C(Nc1ccc2c(c1)CCC2)c1cccc(S(=O)(=O)Nc2ccccc2Cl)c1,15.6%,,"14.6 µM [rising, partial curve]"
COc1cccc(C(=O)OCC(=O)N2CCc3ccccc32)c1OC,27.3%,,
CC(=O)Nc1ccc(NC(=O)c2ccccc2N(Cc2ccccc2)S(C)(=O)=O)cc1,-18.5%,,"4.61 µM [falling, single point]"
CC(C)(C)c1ccc(CSc2nnc(-c3ccccn3)n2Cc2ccco2)cc1,-78.3%,"18.4 µM [falling, partial curve]",
COC(=O)Cn1cnc2c(nnn2Cc2ccc(Cl)cc2)c1=O,16.1%,,
O=C(NCc1ccccc1)c1ccc2c(=O)n(CCCN3CCCC3=O)c(=S)[nH]c2c1,17%,"0.326 µM [rising, full curve, poor fit]",
Cc1sc(NC(=O)CS(=O)(=O)c2ccccc2)c(C(N)=O)c1C,24%,"0.651 µM [rising, full curve, poor fit]","0.411 µM [rising, full curve, poor fit]"
CC(C)c1ccc(N2C(=NC(=O)C3CCCO3)SC3CS(=O)(=O)CC32)cc1 (configuration not stated),-6.93%,"0.651 µM [rising, single point]",
COc1ccc(C2CC(C(F)(F)F)n3ncc(C(=O)NCC4CCCO4)c3N2)cc1OC (configuration not stated),9.01%,"0.731 µM [rising, single point]",
COc1ccc(CCNC(=O)CSc2nnc(CNC(=O)c3ccccc3F)o2)cc1OC,,,"1.64 µM [rising, partial curve, poor fit]"
COc1ccc(-n2cnc3cc(C(=O)NCC4CCCO4)ccc32)cc1 (configuration not stated),13.1%,,
CCCCn1c(NC(=O)c2ccccc2)c(C#N)c2nc3ccccc3nc21,-52.9%,"18.4 µM [falling, partial curve, poor fit]","29.1 µM [falling, single point]"
COc1ccc(C(=O)N2CCCC(C(=O)N3CCCCCC3)C2)cc1 (configuration not stated),,,"6.51 µM [rising, single point]"
COc1ccc(CCNc2ccc(S(=O)(=O)N3CCCC3)cc2[N+](=O)[O-])cc1,,"4.61 µM [rising, single point]","2.06 µM [falling, partial curve]"
CC(C)(c1ccccc1)c1ccc(OCc2ccc(C(=O)O)o2)cc1,-8.48%,,
Fc1cccc(Cl)c1Cn1nnc2c(N3CCC4(CC3)OCCO4)ncnc21,52.1%,"1.03 µM [rising, full curve]",
CCOC(=O)c1ccc(NC(=O)C2C3CCC(C3)C2C(=O)O)cc1 (configuration not stated),46.7%,"9.2 µM [rising, single point]","29.1 µM [rising, single point]"

# Exported bar-delimited: part of the list above
Compound | cell number change | AC50 [1] | AC50 [2]
Cc1cccc(Nc2nnc(SC(C)C(=O)NC3CC3)s2)c1 (configuration not stated) | -13.8% |  | 
Fc1cccc(Cl)c1Cn1nnc2c(N3CCC4(CC3)OCCO4)ncnc21 | 52.1% | 1.03 µM [rising, full curve] | 
